Results are given in words; binding and its absence hold for the method and conditions named. Binding seen in cells or lysates may run through a third protein. Some results given as binding are weak or reduced against the parent protein; the word gives no strength.
Legend:
[1] = target: Recepteur d'Origine Nantais (RON), endogenous in KATOIII cells (human (endogenous in KATOIII)) (UniProt Q04912); assay: co-IP; nuclear proteins of KATOIII cells (NE-PER kit), normoxic and hypoxic (1% O2) conditions; also after RON or β-catenin siRNA; precipitating antibody not told for this experiment
[2] = target: Recepteur d'Origine Nantais (RON), endogenous in KATOIII cells (human (endogenous in KATOIII)) (UniProt Q04912); assay: co-IP; cytoplasmic proteins of KATOIII cells (NE-PER kit), normoxic and hypoxic (1% O2) conditions; precipitating antibody not told for this experiment
[3] = target: Recepteur d'Origine Nantais (RON), expressed from pcDNA3.1-RON (UniProt Q04912); assay: co-IP; MGC-803 cells transfected with pcDNA3.1-RON or pcDNA3.1-RONΔ160; RIPA lysates incubated with anti-RON, anti-RONΔ160 or IgG overnight, protein A/G beads 3 h at room temperature; Western blot

By UniProt entry, the sequences of proteins in these tests, tags left out. Residues count along the entry.
UniProt Q04912, residues 25-1400: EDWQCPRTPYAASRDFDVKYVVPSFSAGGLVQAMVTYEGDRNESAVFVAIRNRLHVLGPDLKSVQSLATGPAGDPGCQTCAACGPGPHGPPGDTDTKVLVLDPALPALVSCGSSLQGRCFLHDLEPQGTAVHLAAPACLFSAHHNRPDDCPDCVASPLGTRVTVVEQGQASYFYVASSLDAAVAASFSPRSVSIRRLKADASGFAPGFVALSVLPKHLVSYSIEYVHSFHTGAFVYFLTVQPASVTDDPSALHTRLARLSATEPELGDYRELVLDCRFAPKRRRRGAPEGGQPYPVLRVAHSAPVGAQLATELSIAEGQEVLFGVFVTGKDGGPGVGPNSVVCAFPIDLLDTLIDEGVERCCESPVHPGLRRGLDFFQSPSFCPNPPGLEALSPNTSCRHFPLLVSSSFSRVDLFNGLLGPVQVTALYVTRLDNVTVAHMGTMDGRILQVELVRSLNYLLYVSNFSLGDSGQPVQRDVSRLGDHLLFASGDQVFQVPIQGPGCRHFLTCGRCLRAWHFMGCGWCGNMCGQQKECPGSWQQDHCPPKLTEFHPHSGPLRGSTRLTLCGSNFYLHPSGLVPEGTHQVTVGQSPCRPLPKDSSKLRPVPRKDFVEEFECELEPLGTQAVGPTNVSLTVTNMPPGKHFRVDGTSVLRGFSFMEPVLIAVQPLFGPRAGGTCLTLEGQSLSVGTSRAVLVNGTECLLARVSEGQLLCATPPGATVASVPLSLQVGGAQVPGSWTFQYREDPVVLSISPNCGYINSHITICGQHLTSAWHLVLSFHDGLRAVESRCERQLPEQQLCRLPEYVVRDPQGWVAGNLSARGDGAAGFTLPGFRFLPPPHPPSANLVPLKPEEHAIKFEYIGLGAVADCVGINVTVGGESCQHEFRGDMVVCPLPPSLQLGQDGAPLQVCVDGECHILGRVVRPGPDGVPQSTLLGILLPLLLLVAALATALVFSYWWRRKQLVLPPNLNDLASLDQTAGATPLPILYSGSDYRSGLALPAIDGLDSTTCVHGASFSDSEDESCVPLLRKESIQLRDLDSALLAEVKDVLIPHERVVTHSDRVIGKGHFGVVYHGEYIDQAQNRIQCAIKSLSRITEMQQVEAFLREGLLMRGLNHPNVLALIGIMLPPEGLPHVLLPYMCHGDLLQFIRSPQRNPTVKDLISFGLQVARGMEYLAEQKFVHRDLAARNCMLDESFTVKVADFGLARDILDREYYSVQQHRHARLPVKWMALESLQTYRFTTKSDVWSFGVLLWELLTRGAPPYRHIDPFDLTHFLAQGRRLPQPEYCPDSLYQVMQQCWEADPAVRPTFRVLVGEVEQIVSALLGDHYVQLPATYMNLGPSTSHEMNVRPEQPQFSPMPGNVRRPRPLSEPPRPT
UniProt Q16665: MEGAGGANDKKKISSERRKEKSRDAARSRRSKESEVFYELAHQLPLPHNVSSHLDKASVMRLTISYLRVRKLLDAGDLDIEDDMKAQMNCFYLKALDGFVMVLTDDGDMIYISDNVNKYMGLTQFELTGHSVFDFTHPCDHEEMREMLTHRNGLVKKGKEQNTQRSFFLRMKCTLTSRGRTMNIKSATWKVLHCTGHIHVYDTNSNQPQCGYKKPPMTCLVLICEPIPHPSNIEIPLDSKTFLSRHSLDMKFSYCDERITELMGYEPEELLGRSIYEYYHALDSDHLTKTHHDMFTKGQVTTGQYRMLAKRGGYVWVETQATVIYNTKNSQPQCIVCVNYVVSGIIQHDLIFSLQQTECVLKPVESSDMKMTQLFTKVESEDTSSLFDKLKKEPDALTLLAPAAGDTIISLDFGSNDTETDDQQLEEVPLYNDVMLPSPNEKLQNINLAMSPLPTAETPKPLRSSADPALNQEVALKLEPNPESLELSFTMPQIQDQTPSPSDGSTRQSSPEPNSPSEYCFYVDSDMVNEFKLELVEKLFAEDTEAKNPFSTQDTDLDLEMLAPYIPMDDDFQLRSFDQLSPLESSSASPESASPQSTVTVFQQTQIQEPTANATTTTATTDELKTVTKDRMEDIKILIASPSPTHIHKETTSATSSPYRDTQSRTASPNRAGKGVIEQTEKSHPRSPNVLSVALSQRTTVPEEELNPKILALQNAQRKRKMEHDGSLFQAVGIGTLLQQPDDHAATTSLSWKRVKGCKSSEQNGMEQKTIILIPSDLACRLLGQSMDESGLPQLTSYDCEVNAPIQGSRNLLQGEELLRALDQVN
UniProt P35222: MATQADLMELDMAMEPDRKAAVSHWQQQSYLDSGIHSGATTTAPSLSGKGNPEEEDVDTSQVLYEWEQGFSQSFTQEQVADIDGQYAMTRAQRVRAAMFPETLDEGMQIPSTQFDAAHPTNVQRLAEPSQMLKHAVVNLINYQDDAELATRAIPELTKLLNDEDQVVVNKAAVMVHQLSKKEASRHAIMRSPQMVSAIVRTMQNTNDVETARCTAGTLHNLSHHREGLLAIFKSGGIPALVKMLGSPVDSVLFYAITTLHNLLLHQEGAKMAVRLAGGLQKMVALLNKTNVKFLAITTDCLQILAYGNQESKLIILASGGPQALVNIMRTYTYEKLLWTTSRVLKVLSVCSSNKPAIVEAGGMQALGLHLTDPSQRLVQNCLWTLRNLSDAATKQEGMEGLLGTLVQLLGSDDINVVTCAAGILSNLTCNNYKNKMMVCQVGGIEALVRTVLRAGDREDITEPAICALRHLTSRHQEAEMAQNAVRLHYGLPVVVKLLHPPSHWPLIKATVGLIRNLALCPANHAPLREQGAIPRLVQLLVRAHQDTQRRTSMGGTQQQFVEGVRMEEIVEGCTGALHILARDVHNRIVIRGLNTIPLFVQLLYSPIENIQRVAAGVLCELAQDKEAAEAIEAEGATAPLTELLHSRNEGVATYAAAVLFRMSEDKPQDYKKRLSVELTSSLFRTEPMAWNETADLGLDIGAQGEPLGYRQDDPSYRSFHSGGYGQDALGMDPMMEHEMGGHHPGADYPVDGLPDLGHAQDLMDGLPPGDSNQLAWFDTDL

binding [1]	binding [3]	Substance	binding [2]
binds		hypoxia-inducible factor-1α (from UniProt Q16665 1-826)	no binding (condition: in the cytoplasmic proteins)
binds	binds	β-catenin (from UniProt P35222 1-781)	no binding (condition: in the cytoplasmic proteins)

Source: paper PMC6535062
